Record: PubChem BioAssay AID720505 (Drosophila RNAi Screening Center, 2013)

Purpose: 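Fly regulators or components of the CRAC channel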 (primary screen)
Cells: Drosophila S2R+ cells
Reagent: long dsRNA against Drosophila genes
Treatment: thapsigargin (2 µM) in calcium-free buffer to empty internal stores, then 2 mM calcium added back
Read-out: 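Stores emptied by 2 µM thapsigargin without calcium, then 2 mM calcium re-added; fluo-4 fluorescence followed by FLIPR in 384-well plates, per-well averaged endpoint, raw; two screen passes, some wells retested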
Scale: calcium signal and retest calcium signal: higher = more calcium entry after store depletion
Call rule: 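About 1500 genes called as lowering calcium entry, by varying amounts, judged against per-plate control wells with STIM1 as positive and Rho1 as negative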
Meaning of the calls: active = called as lowering calcium entry; inactive = not called
The deposit covers about 20,000 reagents; this is an unselected part of those that have a named target and a result. Of all reagents, about 2,100 (10%) got an active call. 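Raw plate signals without normalisation; calls rest on control-based scores that were not deposited; replicate 2 separates called from uncalled poorly.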 Reagents against one gene are numbered here. A plus sign joins genes that one reagent is predicted to hit. The record does not give: the amount of reagent, the time to read-out.

no.	target gene	dsRNA no.	calcium signal, replicate 1	calcium signal, replicate 2	retest calcium signal, replicate 1	retest calcium signal, replicate 2	Call
1	CG31226	1	130	111			inactive
2	Rif1	1	75	92.7			inactive
3	ovo	1	122	102			inactive
4	ovo	2	205	85.8			inactive
5	PIG-O	1	119	88.9			inactive
6	Rbp1	1	112	126			inactive
7	CG43894	1	127	66.3			inactive
8	CG2225	1	192	101			inactive
9	CG2225	2	93.2	121			inactive
10	Argl + CG9515	1	95	105			inactive
11	Argl + CG9515	2	142	176			inactive
12	hoip	1	77.6	84.9			active
13	klhl10	1	95.6	153			inactive
14	klhl10	2	81.3	108			inactive
15	klhl10	3	75.6	205			active
16	klhl10	4	225	80.3			inactive
17	fs(1)h	1	68.9	108	96.7	124	inactive
18	Tpst	1	99.3	90			inactive
19	Tpst	2	71.1	104			active
20	Tpst	3	122	96.3			inactive
21	Tpst	4	61.2	61.6			active
22	Tpst	5	102	142			inactive
23	Nup43	1	193	199			inactive
24	Phb2	1	44.6	145			active
25	Sys1	1	124	151			inactive
26	Or42b	1	173	163			inactive
27	tws	1	76.7	120			active
28	Prp3	1	75.4	106			inactive
29	lky	1	73.8	149			active
30	Gnf1	1	77.2	72.3			active
31	mof	1	178	96.5			inactive
32	CG32181	1	91.5	216			inactive
33	Jhbp2	1	110	119			inactive
34	CG43335	1	154	137			inactive
35	CG43335	2	102	120			inactive
36	CG30383	1	70.1	119			active
37	Cpr23B	1	158	135			inactive
38	SelT	1	109	139			inactive
39	Grd	1	135	155			inactive
40	Or9a	1	83.1	111			inactive
41	rdgB	1	124	193			inactive
42	Kebab	1	109	284			inactive
43	Atg14	1	84.9	98.6			inactive
44	CG12316	1	137	135			inactive
45	CG13725	1	93.2	128			inactive

The list goes on (3 carried over from the part before).
no.	target gene	dsRNA no.	calcium signal, replicate 1	calcium signal, replicate 2	retest calcium signal, replicate 1	retest calcium signal, replicate 2	Call
43	Atg14	1	84.9	98.6			inactive
44	CG12316	1	137	135			inactive
45	CG13725	1	93.2	128			inactive
46	CG16721	1	134	105			inactive
47	CG33493	1	69	82.1			inactive
48	Cdc16	1	204	118			inactive
49	dare	1	124	155			inactive
50	pira	1	73.8	91.4			inactive
51	asRNA:CR43468 + Lfg	1	127	188			inactive
52	Cyp313a4	1	200	100			inactive
53	COX1 (retired record)	1	77.4	209			active
54	vig	1	109	140	128	158	inactive
55	vig	2	130	116			inactive
56	vig	3	195	112			inactive
57	Hmgcl	1	70.1	159			active
58	CG3823	1	116	137			inactive
59	Klp59C	1	79.9	222			inactive
60	CysRS-m	1	160	156			inactive
61	CG31546	1	140	139			inactive
62	Cf2	1	146	85.7			inactive
63	Cf2	2	168	144			inactive
64	CG17300	1	85.7	114			inactive
65	Cp190	1	94.3	157			inactive
66	orb2 + CG43783	1	104	180			inactive
67	orb2 + CG43783	2	97.2	76.8			inactive
68	orb2 + CG43783	3	106	127			inactive
69	Cpr35B	1	119	89.3	96.7	134	inactive
70	Cpr35B	2	84.6	86.2			inactive
71	CG12784	1	130	112			inactive
72	CG3528	1	207	177			inactive
73	CG4467	1	199	242			inactive
74	otu	1	236	123			inactive
75	CG14441	1	185	189			inactive
76	PIP5K59B	1	137	81.7			inactive
77	PIP5K59B	2	121	251			inactive
78	G9a	1	134	105			inactive
79	ghi	1	97.8	75.7			inactive
80	gzl	1	91.7	103			inactive
81	Clk	1	73.6	78.7			inactive
82	CG42553	1	101	68.4			inactive
83	Rab6	1	112	100			inactive
84	CG14195	1	76.1	125			active
85	Mdr65	1	100	70.5	124	121	inactive
86	SuUR	1	147	148			inactive
87	CG14551	1	222	115			inactive
88	CG7914	1	77.4	134			active
89	CG1738	1	74.5	105			active
90	mib1	1	93.2	97			active
91	Dad1	1	160	177			inactive
92	Smg5	1	104	119			inactive
93	OdsH	1	87.3	92.9			inactive
94	CG32305	1	76.4	116			inactive
95	CG9861	1	165	113			inactive
96	CG5521	1	128	146			active
97	CG12035	1	162	132			inactive
98	CG3679	1	188	121			inactive
99	Pka-C2	1	156	163			inactive
100	Pka-C2	2	131	172			inactive
101	CG13043	1	110	117			inactive
102	toy	1	70.2	99.5			active
103	CG43317	1	113	149			inactive
104	CG32832	1	64.7	97.8			active
105	CG7164	1	102	136			inactive
106	TwdlE	1	98.5	150			inactive
